Library screening results

By UniProt entry, the sequences of proteins in these tests, tags left out.
UniProt E9BF75, entry or part of it: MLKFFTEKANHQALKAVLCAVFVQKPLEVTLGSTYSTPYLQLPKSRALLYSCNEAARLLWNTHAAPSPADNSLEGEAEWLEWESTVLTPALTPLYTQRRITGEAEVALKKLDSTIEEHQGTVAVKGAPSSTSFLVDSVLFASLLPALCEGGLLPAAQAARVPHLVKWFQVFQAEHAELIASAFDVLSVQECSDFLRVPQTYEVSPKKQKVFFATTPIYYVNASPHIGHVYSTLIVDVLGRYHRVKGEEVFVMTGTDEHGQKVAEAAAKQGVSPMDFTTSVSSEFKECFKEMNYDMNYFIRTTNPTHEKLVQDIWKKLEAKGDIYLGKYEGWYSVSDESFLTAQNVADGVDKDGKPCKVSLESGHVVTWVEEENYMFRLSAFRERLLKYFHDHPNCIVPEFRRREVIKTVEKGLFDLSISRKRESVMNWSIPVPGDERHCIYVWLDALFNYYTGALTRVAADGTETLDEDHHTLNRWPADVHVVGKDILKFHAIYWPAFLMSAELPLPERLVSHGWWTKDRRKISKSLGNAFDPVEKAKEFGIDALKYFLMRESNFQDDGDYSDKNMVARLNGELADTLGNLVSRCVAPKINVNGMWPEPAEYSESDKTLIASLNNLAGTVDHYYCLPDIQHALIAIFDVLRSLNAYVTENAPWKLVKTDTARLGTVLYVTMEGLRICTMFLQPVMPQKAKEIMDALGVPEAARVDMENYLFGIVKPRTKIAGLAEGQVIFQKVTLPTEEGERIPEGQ

Source: ChEMBL document CHEMBL3988442, “University of Dundee, Small-Polar-MMV Screening Library” (2021).

LdMetRS: 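Primary screen of methionyl-tRNA synthetase; the read-out is not stated. Target: Methionyl-tRNA synthetase (putative), Leishmania donovani (UniProt E9BF75). The test concentration is not given. Values are per cent inhibition. Size under these conditions: about 68,000 compounds, about 24 of them at 50% or above in at least one test.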
Mtb heat-shock: 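Assay on Mycobacterium tuberculosis, filed only as a heat shock assay from Cornell; the read-out is not stated. The concentration is filed as 10 mM, unlikely as a test dose, so the dose is not known. Higher reads as stronger inhibition (inferred: compounds with an IC50 in retests scored well above the rest). Size under these conditions: about 69,000 compounds, about 930 of them at 50% or above in at least one test.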

Results are percentages, as filed.
The controls that fix the scale are not given in the record; negative values are as filed.
The compounds are a random part of those screened.

structure: CCC(CNC(=O)c1nc(=O)[nH][nH]1)Oc1ccccc1C(F)(F)F (centres unmarked)
LdMetRS: 15.32%
Mtb heat-shock: -6.365%

structure: FC(F)(F)C1CN(Cc2cccc(-c3ccccn3)c2)CCO1 (centres unmarked)
LdMetRS: 12.3%
Mtb heat-shock: -16.54%

structure: Cc1cncc(C(=O)N2C[C@@H](C(=O)O)[C@H](C(C)C)C2)c1
LdMetRS: 13.4%
Mtb heat-shock: -10.8%

structure: Cc1c(-c2ccccc2)nc2c(c(C)c(C)n2CCN(C)C)c1N
LdMetRS: 7.094%
Mtb heat-shock: 11.26%

structure: O[C@H]1CC[C@@H](Cc2cc(-c3ccccc3)on2)O[C@@H]1CNCC1CC1
LdMetRS: 12.05%
Mtb heat-shock: -23.26%

structure: Cn1cc(CN2CC[C@@H]3[C@@H]2CCN3C(=O)c2cccc(F)c2)cn1
LdMetRS: 18.68%

structure: CC(C)CN1CCn2c(COCc3cccnc3)nnc2C1
LdMetRS: 11.85%

structure: COc1ccc(-n2cccn2)c(CN2CCC(O)(CO)CC2)c1
LdMetRS: 11.17%
Mtb heat-shock: 7.889%

structure: O=C(NCc1cccnc1)Nc1ccn(CC(F)F)n1
LdMetRS: 17.04%
Mtb heat-shock: -2.2%

structure: O=C(NCc1csc(Br)c1)c1ccc(=O)[nH]n1
LdMetRS: 11.11%
Mtb heat-shock: 1.184%

structure: O=C(C1CCOC1)N1CCC2(CC1)CN(c1ncccn1)CCO2 (centres unmarked)
LdMetRS: 10.44%

structure: COc1ccccc1C(=O)NS(=O)(=O)c1cncc(Br)c1
LdMetRS: 4.569%
Mtb heat-shock: -33.01%

structure: c1ccc(CN2CC[C@H]3CO[C@H](CNc4ncccn4)[C@H]3C2)cc1
LdMetRS: 2.466%

structure: CC(C)c1nc(C2CCCN2CC(=O)Nc2cccnc2)no1 (centres unmarked)
LdMetRS: 15.9%
Mtb heat-shock: -11.06%

structure: [H][C@]12CCN(S(=O)(=O)c3ccccc3)[C@@]1([H])CC[C@H](COC)O2
Mtb heat-shock: -4.52%

structure: CC(C)Nc1ncnc2c1CCN(C(=O)c1ccc[nH]1)CC2
LdMetRS: 8.667%
Mtb heat-shock: -36.32%

structure: O=C(N1CCCC1)N1CCC(Nc2ccncn2)CC1
LdMetRS: 15.53%
Mtb heat-shock: -5.549%

structure: COc1ccc(CN2CCCCC2c2n[nH]cc2-c2cc(C)no2)cc1 (centres unmarked)
LdMetRS: 4.127%

structure: CCCn1ccnc1CN1C[C@@H](CN2CCCN(C)CC2)[C@@H](CO)C1
LdMetRS: 12.53%
Mtb heat-shock: 2.103%

structure: CCN(CC)Cc1ccc(C(=O)NC2CCc3cc(Cl)ccc32)o1 (centres unmarked)
LdMetRS: 12.54%
Mtb heat-shock: 7.656%

structure: O=C(C1CCOCC1)N1CC[C@H](O)[C@@H]1Cc1cccnc1
LdMetRS: 20.67%
Mtb heat-shock: -0.09339%

structure: COCCCn1c(CN2CCSCC2)cnc1S(=O)(=O)C1CCCC1
LdMetRS: 16.62%
Mtb heat-shock: -20.71%

structure: CCN(CC)Cc1cc(C(=O)N2CCC3(CCN(C)CC3)C2)c(C)o1
LdMetRS: -0.2786%
Mtb heat-shock: -11.92%

structure: CCN1CC2(CCCCN2C(=O)c2ccn(C)n2)CC1=O (centres unmarked)
LdMetRS: 9.444%
Mtb heat-shock: 6.796%

structure: Cc1nc(-c2ccsc2)sc1C(=O)N1CCn2c(C)nnc2C1
LdMetRS: 15.19%
Mtb heat-shock: -24.56%

structure: CN(C)S(=O)(=O)N1CCC(Oc2ccc(C#N)cn2)CC1
LdMetRS: 17.65%
Mtb heat-shock: 9.442%

structure: COC(=O)CNC(=O)Cn1ccc2ccc(F)cc21
LdMetRS: 19.95%
Mtb heat-shock: 15.72%

structure: COCCN1C(=O)CO[C@H]2CN(CCCc3ccccc3)C[C@H]21
LdMetRS: 11.28%

structure: COc1ccc(C)cc1-c1csc(N)c1C#N
LdMetRS: 0.9091%
Mtb heat-shock: -12.85%

structure: CC(C)N(C)CC(=O)N1CCCC(c2ccc(C(=O)O)cc2)C1 (centres unmarked)
LdMetRS: 14.07%
Mtb heat-shock: 5.344%

structure: Cn1cc(CN2CCCC3(CCN(C(=O)c4cnccn4)C3)C2)cn1 (centres unmarked)
LdMetRS: 1.587%

structure: c1cncc(C2CC3(CCN(c4cnccn4)CC3)c3ccccc32)c1 (centres unmarked)
LdMetRS: 19.57%

structure: O=C1Nc2ccccc2CC12CCCN2Cc1ccc(C(F)(F)F)cc1 (centres unmarked)
LdMetRS: 7.429%
Mtb heat-shock: -30.25%

structure: CCc1ccc(CN(C)C(=O)C(c2ccccc2F)N(C)C)nc1 (centres unmarked)
LdMetRS: 10.23%
Mtb heat-shock: 26.58%

2 of the entries, repeated:

structure	LdMetRS	Mtb heat-shock
CCc1ccc(CN(C)C(=O)C(c2ccccc2F)N(C)C)nc1 (centres unmarked)	10.23%	26.58%
CC(C)c1nc(C2CCCN2CC(=O)Nc2cccnc2)no1 (centres unmarked)	15.9%	-11.06%